# Reference: publication PMC10692146
# By UniProt entry, the sequences of proteins in these tests, tags left out. Residues count along the entry.
# UniProt P02769, residues 25-607: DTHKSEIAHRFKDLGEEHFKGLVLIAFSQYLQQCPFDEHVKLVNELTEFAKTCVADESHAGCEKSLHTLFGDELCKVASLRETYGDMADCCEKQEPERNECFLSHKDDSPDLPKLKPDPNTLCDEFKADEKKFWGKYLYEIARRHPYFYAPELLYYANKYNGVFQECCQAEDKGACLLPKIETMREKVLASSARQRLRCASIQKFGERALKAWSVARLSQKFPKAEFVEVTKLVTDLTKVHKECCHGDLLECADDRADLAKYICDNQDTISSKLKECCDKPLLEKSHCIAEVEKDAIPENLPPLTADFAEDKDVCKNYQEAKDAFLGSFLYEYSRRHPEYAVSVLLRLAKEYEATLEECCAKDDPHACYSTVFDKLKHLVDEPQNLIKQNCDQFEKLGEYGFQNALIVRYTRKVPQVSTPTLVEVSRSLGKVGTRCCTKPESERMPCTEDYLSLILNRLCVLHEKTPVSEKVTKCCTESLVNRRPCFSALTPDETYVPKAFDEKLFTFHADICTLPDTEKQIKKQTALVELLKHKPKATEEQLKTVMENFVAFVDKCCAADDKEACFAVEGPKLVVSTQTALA
# No constants are given. Whether binding was seen depends on the method and setting.
# Target: T1, FITC-TAB1 peptide (amino acids 384-412 of TAB1)
# T1 sequence (peptide, FITC label (end not stated)): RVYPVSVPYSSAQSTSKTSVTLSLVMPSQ
# Test: native gel or EMSA; FITC-TAB1 peptide 0.25 µM pre-mixed with BSA 8 µg/mL, increasing p38α (0–6 µM) in 20 mM Tris pH 7.5, 100 mM NaCl, 20% DMSO, with 2 mM DTT (reduced) or without DTT (oxidized, after 10 µM H2O2 for 1.5 h); 15 min on ice; 7.5% gel, Tris/glycine pH 9.9, 4 °C; fluorescence imaging; both purified
substance,measurement,value
BSA (from UniProt P02769 25-607),binding,no binding (tested: BSA 8 μg/mL)
